No constants are given. Whether binding was seen depends on the method and setting. Binding seen in cells or lysates may run through a third protein. A yes stands for co-enrichment or nearness to the bait. Other partners may have been found. Tags and fused reporters may be left off the sequences shown.
Target: T1, Rim4-FLAG (S. cerevisiae) (UniProt P38741)
T1 sequence: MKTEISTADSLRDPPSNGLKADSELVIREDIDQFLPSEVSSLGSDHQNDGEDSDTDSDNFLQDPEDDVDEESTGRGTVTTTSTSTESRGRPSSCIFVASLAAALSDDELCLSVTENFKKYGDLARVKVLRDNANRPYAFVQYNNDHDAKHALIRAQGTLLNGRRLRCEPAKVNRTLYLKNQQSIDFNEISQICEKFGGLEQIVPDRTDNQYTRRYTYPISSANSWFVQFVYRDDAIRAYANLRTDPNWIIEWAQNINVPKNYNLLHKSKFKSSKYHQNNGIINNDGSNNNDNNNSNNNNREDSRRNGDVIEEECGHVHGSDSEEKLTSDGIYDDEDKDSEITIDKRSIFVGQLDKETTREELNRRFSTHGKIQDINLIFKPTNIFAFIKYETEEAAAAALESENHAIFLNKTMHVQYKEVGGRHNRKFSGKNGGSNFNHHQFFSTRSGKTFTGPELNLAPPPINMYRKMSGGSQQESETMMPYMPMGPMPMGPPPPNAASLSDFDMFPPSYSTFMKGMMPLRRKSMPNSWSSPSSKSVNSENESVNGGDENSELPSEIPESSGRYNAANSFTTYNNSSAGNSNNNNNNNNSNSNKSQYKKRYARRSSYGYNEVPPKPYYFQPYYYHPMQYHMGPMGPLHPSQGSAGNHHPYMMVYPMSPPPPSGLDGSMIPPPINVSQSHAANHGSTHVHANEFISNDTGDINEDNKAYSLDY
Assay: affinity purification with mass spectrometry

Sequences of proteins named here, by UniProt entry; tags and fusion partners are left off.
UniProt P04147: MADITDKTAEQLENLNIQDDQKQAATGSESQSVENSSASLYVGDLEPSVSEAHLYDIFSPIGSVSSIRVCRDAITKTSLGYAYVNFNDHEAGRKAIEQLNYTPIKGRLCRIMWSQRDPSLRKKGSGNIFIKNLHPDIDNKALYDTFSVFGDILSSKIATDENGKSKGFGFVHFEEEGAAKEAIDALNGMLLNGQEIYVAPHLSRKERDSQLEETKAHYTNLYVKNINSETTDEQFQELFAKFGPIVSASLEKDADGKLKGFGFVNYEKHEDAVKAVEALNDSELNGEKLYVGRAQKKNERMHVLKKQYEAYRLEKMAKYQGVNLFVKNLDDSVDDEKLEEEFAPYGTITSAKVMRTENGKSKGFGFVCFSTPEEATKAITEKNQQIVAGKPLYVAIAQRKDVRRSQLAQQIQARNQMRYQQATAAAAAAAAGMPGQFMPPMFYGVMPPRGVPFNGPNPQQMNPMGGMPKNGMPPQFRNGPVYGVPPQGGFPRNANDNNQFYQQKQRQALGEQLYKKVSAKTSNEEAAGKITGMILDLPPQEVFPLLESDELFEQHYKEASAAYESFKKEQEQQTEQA

binding: binds
Substance: Pab1 (from UniProt P04147 1-577)
